Measurements taken from patent US20210388031A1, “Designer Peptide Opsonins” (New Jersey Institute of Technology, priority 2020, published 2021).
At least one read-out could not be matched to a standard name with certainty.

System: SARS-CoV-2
Conditions: versus published SBP1

Substance: Ac-ESLSLSLSLSLSLEGQYKTYIDKNNHYAEDERYK-NH2 (N-terminus and C-terminus assumed) [ESBP3]
- IC50 improved over published SBP1: 3 orders of magnitude
